PubChem BioAssay AID1224830, NIAID | 2016
Here is a random part of about 18,000 reagents. In the full data, about 2,900 (16%) were called active. 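Calls are made per well; low scores hint the gene aids the LPS response, high scores that it dampens it.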 Unmarked entries are inactive. Repeated entries: four replicate wells of each siRNA pool. Reagent sequences are not shown.

Aim: 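Genes whose knock-down alters the TNF-alpha reporter response to LPS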 (primary screen)
Cells: human THP-1 monocytic leukaemia cells, TNF dual-luciferase reporter clone, PMA-differentiated to macrophage-like cells
Reagents: siRNA pool against human genes, 50 nM
Timing: LPS for 4 h, given about 3 days after siRNA transfection
Treatment: bacterial LPS (TLR4 ligand), 10 ng/ml
Measurement: 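Ratio of firefly to renilla light, scaled to the plate median and expressed as a robust z-score per replicate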
Reading the numbers: TNF reporter robust z-score: higher = stronger TNF reporter response to LPS
Call rule: 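a well is active when its z-score exceeds 2.8 or falls below -1.5; control wells carry no call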

Silencing of NEIL2 gave: TNF reporter robust z-score -0.67.
Depletion of NEIL2 gave: TNF reporter robust z-score -1.96 (active).
NEIL2 scored TNF reporter robust z-score -0.15.
Silencing of NEIL2 gave: TNF reporter robust z-score 0.24.
COPS6 showed TNF reporter robust z-score -1.83 (active).
With knock-down of COPS6, the record shows TNF reporter robust z-score -1.28.
Knock-down of COPS6 resulted in: TNF reporter robust z-score -1.39.
Knock-down of COPS6 came out at: TNF reporter robust z-score -1.15.
For KIF20A, the values are TNF reporter robust z-score 0.25.
Against KIF20A, the values are TNF reporter robust z-score 0.12.
Knock-down of KIF20A gave: TNF reporter robust z-score 0.67.
KCNC1 showed TNF reporter robust z-score -0.98.
Knock-down of KCNC1 came out at: TNF reporter robust z-score 1.48.
Against KCNC1, the entry reads TNF reporter robust z-score 3.03 (active).
Against KCNC1, the entry reads TNF reporter robust z-score 2.52.
CYP21A2 scored TNF reporter robust z-score -0.44.
With knock-down of CYP21A2 the results were TNF reporter robust z-score -1.2.
CYP21A2 gave TNF reporter robust z-score -1.14.
Against CYP21A2, the entry reads TNF reporter robust z-score -0.8.
After knock-down of PCDHA11, the record shows TNF reporter robust z-score -1.27.
Against PCDHA11, the values are TNF reporter robust z-score -0.96.
PCDHA11 gave TNF reporter robust z-score -0.16.
CLSPN scored TNF reporter robust z-score 4.35 (active).
With knock-down of CLSPN, the screen gave TNF reporter robust z-score 2.1.
Knock-down of CLSPN gave: TNF reporter robust z-score 1.15.
For CLSPN, the values are TNF reporter robust z-score 2.49.
Against PLA2G7, the entry reads TNF reporter robust z-score -0.12.
Depletion of PLA2G7 gave: TNF reporter robust z-score 0.03.
Against PLA2G7, the values are TNF reporter robust z-score -0.2.
POGLUT1 gave TNF reporter robust z-score -0.21.
POGLUT1 scored TNF reporter robust z-score 0.47.
Knock-down of POGLUT1 resulted in: TNF reporter robust z-score -0.31.
Against POGLUT1, the values are TNF reporter robust z-score 0.56.
